PubChem BioAssay AID1159592 | NIAID, 2016

Purpose: 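Toll-like receptor pathway genes that R848 needs to send NF-kB into the nucleus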
System: RAW264.7 macrophages from mouse bearing reporters for p65 (GFP) and the Tnf promoter (mCherry)
Knock-down reagent: single siRNA against mouse genes
Duration: 48 to 72 hours after siRNA transfection
Conditions: R848 TLR ligand for 40 minutes before fixation; dose not given
Detection: 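Replicate mean of robust z-score relative to negative-control wells, after median/MAD scaling by plate, for the imaged GFP-p65 nuclear-to-cytoplasmic ratio 40 minutes after R848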
Scale: NF-kB translocation z-score: higher = more p65 moved into the nucleus than in negative-control wells
Call rule: 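Active when the replicate-mean z lies above 1.5 or below -1.5; the depositor also grades absolute z in steps of 1, 1.5, 2 and 2.5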
Calls: active = strong change, either direction; inactive = little change
In all, the deposit lists 756 reagents; shown is an unselected part. 147 of all reagents (19%) count as active. 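Active covers both loss and gain of p65 entry; negative z means weaker NF-kB activation, positive means more nuclear p65.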 Reagents against one gene are numbered here. No sequences are given here. Not given: the amount of reagent.

no.	Gene	reagent	NF-kB translocation z-score, replicate mean	call
1	Tab2 (TGF-beta activated kinase 1/MAP3K7 binding protein 2)	1	-1.23	inactive
2	Tab2 (TGF-beta activated kinase 1/MAP3K7 binding protein 2)	2	-0.801	inactive
3	Tab2 (TGF-beta activated kinase 1/MAP3K7 binding protein 2)	3	0.114	inactive
4	Tab2 (TGF-beta activated kinase 1/MAP3K7 binding protein 2)	4	-0.173	inactive
5	Tab2 (TGF-beta activated kinase 1/MAP3K7 binding protein 2)	5	-0.0143	inactive
6	Tab2 (TGF-beta activated kinase 1/MAP3K7 binding protein 2)	6	-0.105	inactive
7	Ripk3 (receptor-interacting serine-threonine kinase 3)	1	0.031	inactive
8	Ripk3 (receptor-interacting serine-threonine kinase 3)	2	0.305	inactive
9	Ripk3 (receptor-interacting serine-threonine kinase 3)	3	-1.05	inactive
10	Ripk3 (receptor-interacting serine-threonine kinase 3)	4	-0.912	inactive
11	Ripk3 (receptor-interacting serine-threonine kinase 3)	5	0.201	inactive
12	Ripk3 (receptor-interacting serine-threonine kinase 3)	6	-2.62	active
13	Irak2 (interleukin-1 receptor-associated kinase 2)	1	-2.88	active
14	Irak2 (interleukin-1 receptor-associated kinase 2)	2	-1.54	active
15	Irak2 (interleukin-1 receptor-associated kinase 2)	3	-3.43	active
16	Irak2 (interleukin-1 receptor-associated kinase 2)	4	-2.5	active
17	Irak2 (interleukin-1 receptor-associated kinase 2)	5	-2.9	active
18	Irak2 (interleukin-1 receptor-associated kinase 2)	6	-3.65	active
19	Tlr5 (toll-like receptor 5)	1	-0.165	inactive
20	Tlr5 (toll-like receptor 5)	2	0.743	inactive
21	Tlr5 (toll-like receptor 5)	3	0.21	inactive
22	Tlr5 (toll-like receptor 5)	4	-0.139	inactive
23	Tlr5 (toll-like receptor 5)	5	-1.22	inactive
24	Tlr5 (toll-like receptor 5)	6	0.0147	inactive
25	Map2k2 (mitogen-activated protein kinase kinase 2)	1	-0.0156	inactive
26	Map2k2 (mitogen-activated protein kinase kinase 2)	2	-1.34	inactive
27	Map2k2 (mitogen-activated protein kinase kinase 2)	3	-1.02	inactive
28	Map2k2 (mitogen-activated protein kinase kinase 2)	4	-1.04	inactive
29	Map2k2 (mitogen-activated protein kinase kinase 2)	5	-1.21	inactive
30	Map2k2 (mitogen-activated protein kinase kinase 2)	6	-0.846	inactive
31	Jun (Jun proto-oncogene, AP-1 transcription factor subunit)	1	0.472	inactive
32	Jun (Jun proto-oncogene, AP-1 transcription factor subunit)	2	-2.94	active
33	Jun (Jun proto-oncogene, AP-1 transcription factor subunit)	3	-0.488	inactive
34	Jun (Jun proto-oncogene, AP-1 transcription factor subunit)	4	-1.85	active
35	Jun (Jun proto-oncogene, AP-1 transcription factor subunit)	5	-1.71	active
36	Jun (Jun proto-oncogene, AP-1 transcription factor subunit)	6	-0.423	inactive
37	Irf7 (interferon regulatory factor 7)	1	-0.377	inactive
38	Irf7 (interferon regulatory factor 7)	2	0.0677	inactive
39	Irf7 (interferon regulatory factor 7)	3	0.978	inactive
40	Irf7 (interferon regulatory factor 7)	4	-0.955	inactive
41	Irf7 (interferon regulatory factor 7)	5	-0.374	inactive
42	Irf7 (interferon regulatory factor 7)	6	0.46	inactive
43	Ep300 (E1A binding protein p300)	1	-0.716	inactive
44	Ep300 (E1A binding protein p300)	2	-1.1	inactive
45	Ep300 (E1A binding protein p300)	3	-1.37	inactive
46	Ep300 (E1A binding protein p300)	4	-0.269	inactive
47	Ep300 (E1A binding protein p300)	5	-1.54	active
48	Ep300 (E1A binding protein p300)	6	-1.28	inactive
49	Mapk8 (mitogen-activated protein kinase 8)	1	0.774	inactive
50	Mapk8 (mitogen-activated protein kinase 8)	2	-1.34	inactive
51	Mapk8 (mitogen-activated protein kinase 8)	3	-1.04	inactive
52	Mapk8 (mitogen-activated protein kinase 8)	4	-0.534	inactive
53	Mapk8 (mitogen-activated protein kinase 8)	5	-1.56	active
54	Mapk8 (mitogen-activated protein kinase 8)	6	-0.981	inactive

3 entries from above, reformatted:
Gene	reagent	NF-kB translocation z-score, replicate mean	call
Tab2 (TGF-beta activated kinase 1/MAP3K7 binding protein 2)	2	-0.801	inactive
Tab2 (TGF-beta activated kinase 1/MAP3K7 binding protein 2)	3	0.114	inactive
Tab2 (TGF-beta activated kinase 1/MAP3K7 binding protein 2)	4	-0.173	inactive
